Test results: the supplement of paper PMC10032668
This is one part of the list. The list holds hits alone, and they repeat only in part.

By UniProt entry, the sequences of proteins in these tests, tags left out.
TRRAP, Q9Y4A5, UniProt Q9Y4A5, whole entry: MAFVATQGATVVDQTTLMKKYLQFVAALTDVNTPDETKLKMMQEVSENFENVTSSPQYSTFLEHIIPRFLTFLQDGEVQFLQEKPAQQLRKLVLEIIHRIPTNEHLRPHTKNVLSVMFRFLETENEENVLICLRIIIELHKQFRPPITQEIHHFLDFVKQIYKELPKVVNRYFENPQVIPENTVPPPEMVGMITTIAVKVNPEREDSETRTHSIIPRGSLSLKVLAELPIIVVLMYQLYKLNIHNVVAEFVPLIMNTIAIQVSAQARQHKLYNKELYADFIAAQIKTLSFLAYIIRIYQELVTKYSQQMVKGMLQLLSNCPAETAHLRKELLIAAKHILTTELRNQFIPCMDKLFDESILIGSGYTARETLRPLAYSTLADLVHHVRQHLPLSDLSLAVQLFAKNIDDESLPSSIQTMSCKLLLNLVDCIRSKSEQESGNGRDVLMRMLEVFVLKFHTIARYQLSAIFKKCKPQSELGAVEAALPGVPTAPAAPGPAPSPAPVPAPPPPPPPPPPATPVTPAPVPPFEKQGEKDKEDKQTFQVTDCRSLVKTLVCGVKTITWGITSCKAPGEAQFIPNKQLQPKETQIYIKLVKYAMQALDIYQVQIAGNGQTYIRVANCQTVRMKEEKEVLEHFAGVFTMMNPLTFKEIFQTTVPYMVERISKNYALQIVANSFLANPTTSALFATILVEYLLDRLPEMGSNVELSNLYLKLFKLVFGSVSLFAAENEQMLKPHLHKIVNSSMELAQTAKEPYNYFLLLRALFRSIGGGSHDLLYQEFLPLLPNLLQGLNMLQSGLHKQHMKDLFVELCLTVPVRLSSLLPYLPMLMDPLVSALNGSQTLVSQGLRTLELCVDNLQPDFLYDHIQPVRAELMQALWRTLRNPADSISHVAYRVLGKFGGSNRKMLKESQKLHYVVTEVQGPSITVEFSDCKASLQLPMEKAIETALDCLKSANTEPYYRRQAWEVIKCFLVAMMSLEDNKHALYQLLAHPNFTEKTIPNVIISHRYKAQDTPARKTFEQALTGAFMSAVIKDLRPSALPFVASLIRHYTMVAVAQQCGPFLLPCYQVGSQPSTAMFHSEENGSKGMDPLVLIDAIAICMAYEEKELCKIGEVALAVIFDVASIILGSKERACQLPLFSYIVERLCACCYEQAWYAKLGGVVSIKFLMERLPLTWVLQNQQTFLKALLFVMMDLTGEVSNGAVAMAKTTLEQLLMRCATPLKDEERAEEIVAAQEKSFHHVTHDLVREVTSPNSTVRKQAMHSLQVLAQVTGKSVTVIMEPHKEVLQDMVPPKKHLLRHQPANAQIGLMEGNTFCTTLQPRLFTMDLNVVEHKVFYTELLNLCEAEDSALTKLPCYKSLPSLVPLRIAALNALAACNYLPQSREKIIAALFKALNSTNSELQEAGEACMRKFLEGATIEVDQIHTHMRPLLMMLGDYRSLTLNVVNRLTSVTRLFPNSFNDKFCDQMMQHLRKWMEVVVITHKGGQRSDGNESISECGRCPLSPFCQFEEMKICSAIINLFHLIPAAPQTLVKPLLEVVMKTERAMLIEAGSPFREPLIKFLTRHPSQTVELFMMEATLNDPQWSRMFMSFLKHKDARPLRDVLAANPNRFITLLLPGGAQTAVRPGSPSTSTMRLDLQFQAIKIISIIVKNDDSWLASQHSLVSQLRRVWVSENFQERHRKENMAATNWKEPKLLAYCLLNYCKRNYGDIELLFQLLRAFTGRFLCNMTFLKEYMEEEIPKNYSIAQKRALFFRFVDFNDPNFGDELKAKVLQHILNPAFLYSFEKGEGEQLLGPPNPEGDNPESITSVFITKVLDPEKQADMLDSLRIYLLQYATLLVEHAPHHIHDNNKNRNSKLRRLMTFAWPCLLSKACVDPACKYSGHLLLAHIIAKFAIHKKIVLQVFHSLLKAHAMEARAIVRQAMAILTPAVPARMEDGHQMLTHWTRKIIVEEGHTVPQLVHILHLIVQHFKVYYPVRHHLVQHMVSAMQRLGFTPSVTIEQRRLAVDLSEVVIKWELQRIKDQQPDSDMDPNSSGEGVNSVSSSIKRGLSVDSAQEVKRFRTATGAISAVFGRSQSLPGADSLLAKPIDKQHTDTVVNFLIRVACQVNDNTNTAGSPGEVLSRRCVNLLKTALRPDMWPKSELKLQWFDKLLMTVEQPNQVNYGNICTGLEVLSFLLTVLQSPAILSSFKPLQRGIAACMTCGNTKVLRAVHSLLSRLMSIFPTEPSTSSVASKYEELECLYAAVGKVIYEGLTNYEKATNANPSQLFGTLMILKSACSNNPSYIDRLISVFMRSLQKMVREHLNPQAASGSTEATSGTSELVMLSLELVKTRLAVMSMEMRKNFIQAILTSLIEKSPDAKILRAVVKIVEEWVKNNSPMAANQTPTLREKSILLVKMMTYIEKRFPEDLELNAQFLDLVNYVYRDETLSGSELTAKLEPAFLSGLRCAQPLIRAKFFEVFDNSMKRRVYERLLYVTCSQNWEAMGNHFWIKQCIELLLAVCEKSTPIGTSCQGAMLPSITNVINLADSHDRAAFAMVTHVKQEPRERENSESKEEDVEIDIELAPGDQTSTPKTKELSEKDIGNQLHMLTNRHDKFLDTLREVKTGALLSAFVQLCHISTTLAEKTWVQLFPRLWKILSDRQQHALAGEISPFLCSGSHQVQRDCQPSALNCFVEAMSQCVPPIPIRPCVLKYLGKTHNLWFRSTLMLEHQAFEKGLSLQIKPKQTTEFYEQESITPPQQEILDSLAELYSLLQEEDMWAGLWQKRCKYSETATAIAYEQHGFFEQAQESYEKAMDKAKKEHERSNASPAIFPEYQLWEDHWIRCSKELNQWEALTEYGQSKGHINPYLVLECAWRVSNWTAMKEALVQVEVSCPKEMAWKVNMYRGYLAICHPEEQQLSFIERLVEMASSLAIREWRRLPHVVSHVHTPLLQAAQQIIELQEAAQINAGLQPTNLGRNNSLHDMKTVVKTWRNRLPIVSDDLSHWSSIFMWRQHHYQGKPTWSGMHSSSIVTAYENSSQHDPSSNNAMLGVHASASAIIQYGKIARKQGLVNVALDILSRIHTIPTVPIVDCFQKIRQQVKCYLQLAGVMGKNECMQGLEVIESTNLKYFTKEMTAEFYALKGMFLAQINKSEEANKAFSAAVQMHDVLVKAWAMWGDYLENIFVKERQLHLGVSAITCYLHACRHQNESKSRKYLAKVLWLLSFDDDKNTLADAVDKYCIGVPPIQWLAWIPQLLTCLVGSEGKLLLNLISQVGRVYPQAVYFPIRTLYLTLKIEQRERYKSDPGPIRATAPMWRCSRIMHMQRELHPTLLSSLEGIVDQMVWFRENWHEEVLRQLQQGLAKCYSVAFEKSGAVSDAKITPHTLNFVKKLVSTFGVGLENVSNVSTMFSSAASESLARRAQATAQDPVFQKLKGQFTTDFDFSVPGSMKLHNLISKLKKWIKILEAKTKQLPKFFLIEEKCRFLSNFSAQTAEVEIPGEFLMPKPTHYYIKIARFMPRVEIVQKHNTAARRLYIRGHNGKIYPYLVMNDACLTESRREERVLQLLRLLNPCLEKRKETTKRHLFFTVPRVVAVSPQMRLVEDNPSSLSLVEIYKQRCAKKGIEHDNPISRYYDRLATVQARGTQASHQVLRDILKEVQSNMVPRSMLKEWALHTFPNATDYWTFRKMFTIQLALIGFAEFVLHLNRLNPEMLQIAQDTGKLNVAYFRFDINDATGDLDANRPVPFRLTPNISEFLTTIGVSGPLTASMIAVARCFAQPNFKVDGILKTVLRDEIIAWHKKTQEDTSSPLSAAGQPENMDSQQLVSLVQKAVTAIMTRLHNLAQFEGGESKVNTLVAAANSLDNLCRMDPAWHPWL
DEFA3, P59666, UniProt P59666, whole entry: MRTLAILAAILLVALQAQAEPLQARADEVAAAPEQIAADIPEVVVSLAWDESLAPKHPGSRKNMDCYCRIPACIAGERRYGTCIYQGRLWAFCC
DLD, P09622, UniProt P09622, whole entry: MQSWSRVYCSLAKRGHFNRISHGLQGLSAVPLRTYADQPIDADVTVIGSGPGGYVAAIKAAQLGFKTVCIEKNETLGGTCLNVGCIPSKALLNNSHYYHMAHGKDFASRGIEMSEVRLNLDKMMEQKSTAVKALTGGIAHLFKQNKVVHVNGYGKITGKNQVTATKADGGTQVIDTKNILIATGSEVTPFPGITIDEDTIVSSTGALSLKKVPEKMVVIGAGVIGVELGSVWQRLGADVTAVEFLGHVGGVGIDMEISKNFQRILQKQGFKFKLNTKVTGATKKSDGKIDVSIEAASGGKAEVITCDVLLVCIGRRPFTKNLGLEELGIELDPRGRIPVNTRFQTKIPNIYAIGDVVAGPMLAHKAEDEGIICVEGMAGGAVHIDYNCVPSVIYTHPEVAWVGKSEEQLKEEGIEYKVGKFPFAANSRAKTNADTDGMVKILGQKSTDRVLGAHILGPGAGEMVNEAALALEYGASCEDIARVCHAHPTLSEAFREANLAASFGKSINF
EIF3G, O75821, UniProt O75821, whole entry: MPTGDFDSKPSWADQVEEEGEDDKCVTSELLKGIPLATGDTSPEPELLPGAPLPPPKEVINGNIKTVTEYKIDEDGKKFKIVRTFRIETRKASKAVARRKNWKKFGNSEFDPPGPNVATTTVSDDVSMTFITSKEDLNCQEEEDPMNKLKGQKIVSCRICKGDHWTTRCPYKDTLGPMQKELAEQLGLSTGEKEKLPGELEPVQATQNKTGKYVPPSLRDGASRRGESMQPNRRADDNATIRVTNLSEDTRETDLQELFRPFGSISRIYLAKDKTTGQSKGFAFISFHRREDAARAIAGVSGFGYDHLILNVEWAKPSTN
GTF2F2, P13984, UniProt P13984, whole entry: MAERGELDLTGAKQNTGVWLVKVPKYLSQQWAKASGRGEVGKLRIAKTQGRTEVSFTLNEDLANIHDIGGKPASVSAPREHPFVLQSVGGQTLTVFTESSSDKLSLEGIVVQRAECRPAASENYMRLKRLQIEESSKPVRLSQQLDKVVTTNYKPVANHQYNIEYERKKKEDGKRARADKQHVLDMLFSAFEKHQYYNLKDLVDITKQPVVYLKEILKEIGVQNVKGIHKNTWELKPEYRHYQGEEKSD
HSPB1, P04792, UniProt P04792, whole entry: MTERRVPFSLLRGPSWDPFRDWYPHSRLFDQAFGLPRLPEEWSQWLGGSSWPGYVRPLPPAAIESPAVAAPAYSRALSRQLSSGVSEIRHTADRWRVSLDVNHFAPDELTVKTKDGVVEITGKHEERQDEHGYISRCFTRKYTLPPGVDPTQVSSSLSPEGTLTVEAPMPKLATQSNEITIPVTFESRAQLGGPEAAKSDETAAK
DLAT, P10515, UniProt P10515, whole entry: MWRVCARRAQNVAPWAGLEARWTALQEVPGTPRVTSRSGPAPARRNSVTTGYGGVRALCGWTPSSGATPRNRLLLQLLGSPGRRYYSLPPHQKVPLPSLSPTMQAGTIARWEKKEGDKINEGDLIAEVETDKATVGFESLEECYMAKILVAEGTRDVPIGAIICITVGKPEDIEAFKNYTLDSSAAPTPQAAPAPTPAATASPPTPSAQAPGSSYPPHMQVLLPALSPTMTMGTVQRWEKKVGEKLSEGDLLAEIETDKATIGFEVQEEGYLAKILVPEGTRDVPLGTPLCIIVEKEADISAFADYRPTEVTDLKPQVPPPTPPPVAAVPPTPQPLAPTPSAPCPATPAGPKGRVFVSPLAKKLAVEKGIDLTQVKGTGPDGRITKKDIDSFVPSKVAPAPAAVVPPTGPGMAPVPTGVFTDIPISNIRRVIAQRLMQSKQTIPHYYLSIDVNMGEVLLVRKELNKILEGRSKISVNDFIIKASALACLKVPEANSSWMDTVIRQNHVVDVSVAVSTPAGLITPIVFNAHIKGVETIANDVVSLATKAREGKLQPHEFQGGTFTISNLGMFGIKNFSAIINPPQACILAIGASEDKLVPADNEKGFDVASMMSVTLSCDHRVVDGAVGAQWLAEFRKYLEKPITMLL

Key:
Assay in all cases: PRISMA enrichment of interactor (LFQ) in peptide spot vs all other peptide spots (log2 fold change); higher = stronger / more specific binding of the interactor to the peptide
CHAF1B, Q13112 = molecular target: CHAF1B, Q13112
Protocol: (§1)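 PRISMA: 15-aa overlapping tiles (offset 8 aa) of 60 microproteins, plus SOS1/GLUT1 control peptides, were spot-synthesized on cellulose membranes in triplicate. Membranes were incubated with benzonase-treated HEK293T lysate, and bound proteins were identified by LC-MS/MS with LFQ. Enrichment is the log2 fold change of each protein in one spot versus all other spots. Only interactors passing the significance cutoff are listed.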

CHEK1, O14757 = molecular target: CHEK1, O14757
Protocol: as §1

COPZ1, P61923 = molecular target: COPZ1, P61923
Protocol: as §1

PRMT3, O60678 = molecular target: PRMT3, O60678
Protocol: as §1

SPTY2D1, Q68D10 = molecular target: SPTY2D1, Q68D10
Protocol: as §1

SRSF11, Q05519 = molecular target: SRSF11, Q05519
Protocol: as §1

TIMM8A, O60220 = molecular target: TIMM8A, O60220
Protocol: as §1

TRRAP, Q9Y4A5 = molecular target: TRRAP, Q9Y4A5
Protocol: as §1

ZNF668, Q96K58 = molecular target: ZNF668, Q96K58
Protocol: as §1

CDK12, Q9NYV4 = molecular target: CDK12, Q9NYV4
Protocol: as §1

DCP1A, Q9NPI6 = molecular target: DCP1A, Q9NPI6
Protocol: as §1

DEFA3, P59666 = molecular target: DEFA3, P59666
Protocol: as §1

DLD, P09622 = molecular target: DLD, P09622
Protocol: as §1

EARS2, Q5JPH6 = molecular target: EARS2, Q5JPH6
Protocol: as §1

EDC4, Q6P2E9 = molecular target: EDC4, Q6P2E9
Protocol: as §1

EIF3G, O75821 = molecular target: EIF3G, O75821
Protocol: as §1

GTF2F2, P13984 = molecular target: GTF2F2, P13984
Protocol: as §1

HSPB1, P04792 = molecular target: HSPB1, P04792
Protocol: as §1

MAP7, Q14244 = molecular target: MAP7, Q14244
Protocol: as §1

MCM5, P33992 = molecular target: MCM5, P33992
Protocol: as §1

NSA2, O95478 = molecular target: NSA2, O95478
Protocol: as §1

NSD2, O96028 = molecular target: NSD2, O96028
Protocol: as §1

NUP98, P52948 = molecular target: NUP98, P52948
Protocol: as §1

OAT, P04181 = molecular target: OAT, P04181
Protocol: as §1

ORC5, O43913 = molecular target: ORC5, O43913
Protocol: as §1

S100A9, P06702 = molecular target: S100A9, P06702
Protocol: as §1

SBDS, Q9Y3A5 = molecular target: SBDS, Q9Y3A5
Protocol: as §1

SDF2L1, Q9HCN8 = molecular target: SDF2L1, Q9HCN8
Protocol: as §1

SGPP1, Q9BX95 = molecular target: SGPP1, Q9BX95
Protocol: as §1

CHAMP1, Q96JM3 = molecular target: CHAMP1, Q96JM3
Protocol: as §1

DLAT, P10515 = molecular target: DLAT, P10515
Protocol: as §1

MPST, P25325 = molecular target: MPST, P25325
Protocol: as §1

USP34, Q70CQ2 = molecular target: USP34, Q70CQ2
Protocol: as §1

VLPNHRLSFLFTVSG [RP1-206D15.6]
PRISMA enrichment of interactor (log2) (CHAF1B, Q13112): 3.93 | PRISMA enrichment of interactor (log2) (CHEK1, O14757): 4.79 | PRISMA enrichment of interactor (log2) (COPZ1, P61923): 4.49 | PRISMA enrichment of interactor (log2) (PRMT3, O60678): 4.22 | PRISMA enrichment of interactor (log2) (SPTY2D1, Q68D10): 5.36 | PRISMA enrichment of interactor (log2) (SRSF11, Q05519): 6.69 | PRISMA enrichment of interactor (log2) (TIMM8A, O60220): 5.6 | PRISMA enrichment of interactor (log2) (TRRAP, Q9Y4A5): 5.89 | PRISMA enrichment of interactor (log2) (ZNF668, Q96K58): 6.13

LCMAMVRKSSALGKE [IDI2-AS1]
PRISMA enrichment of interactor (log2) (CDK12, Q9NYV4): 4.81 | PRISMA enrichment of interactor (log2) (DCP1A, Q9NPI6): 3.97 | PRISMA enrichment of interactor (log2) (DEFA3, P59666): 4.76 | PRISMA enrichment of interactor (log2) (DLD, P09622): 6.29 | PRISMA enrichment of interactor (log2) (EARS2, Q5JPH6): 5.59 | PRISMA enrichment of interactor (log2) (EDC4, Q6P2E9): 4.37 | PRISMA enrichment of interactor (log2) (EIF3G, O75821): 8.55 | PRISMA enrichment of interactor (log2) (GTF2F2, P13984): 4.96 | PRISMA enrichment of interactor (log2) (HSPB1, P04792): 5.52 | PRISMA enrichment of interactor (log2) (MAP7, Q14244): 6.16 | PRISMA enrichment of interactor (log2) (MCM5, P33992): 5.42 | PRISMA enrichment of interactor (log2) (NSA2, O95478): 4.73 | PRISMA enrichment of interactor (log2) (NSD2, O96028): 9.72 | PRISMA enrichment of interactor (log2) (NUP98, P52948): 6.1 | PRISMA enrichment of interactor (log2) (OAT, P04181): 5 | PRISMA enrichment of interactor (log2) (ORC5, O43913): 6.02 | PRISMA enrichment of interactor (log2) (S100A9, P06702): 7.63 | PRISMA enrichment of interactor (log2) (SBDS, Q9Y3A5): 5.29 | PRISMA enrichment of interactor (log2) (SDF2L1, Q9HCN8): 4.92 | PRISMA enrichment of interactor (log2) (SGPP1, Q9BX95): 4.58

ALLRQGRQLRYTDRD [MIEF-MP]
PRISMA enrichment of interactor (log2) (CHAMP1, Q96JM3): 5.52 | PRISMA enrichment of interactor (log2) (DLAT, P10515): 4.86 | PRISMA enrichment of interactor (log2) (MPST, P25325): 4.02 | PRISMA enrichment of interactor (log2) (USP34, Q70CQ2): 4.93
